Taken from: PubChem BioAssay AID504791 (Drosophila RNAi Screening Center, 2011)
In all, the deposit lists about 23,000 reagents; this is a random part of those with a known target gene and a result. Of all reagents, 199 (0.86%) got an active call. 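Plate-scaled ratios behind the calls are not deposited; printed light signals are raw; many rows marked increased or decreased are still called inactive.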 Entries without a mark were called inactive. Reagents against one gene are numbered here. A plus sign joins genes that one reagent is predicted to hit.

Assay: 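Factors in Argonaute-based small RNA production and activity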 (primary screen)
System: Drosophila S2-derived reporter cells
Reagent: long dsRNA against Drosophila genes, about 150-250 ng dsRNA per well (siRNA assay); about 80-120 ng (miRNA assay)
Duration: about 5 days (siRNA assay); about 4 days (miRNA assay)
Challenge: copper sulfate induction of reporters: 25 µM (siRNA assay); 200 mM stated (miRNA assay), 1-2 days before reading
Measurement: 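Per-well ratio of Renilla over firefly light, expressed relative to that plate's average ratio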
Reading the numbers: siRNA reporter hit score: higher = 3 marks a strong hit with raised ratio; -3 a strong hit with lowered ratio
Hit rule: 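a well was a first-pass pick when its plate-scaled ratio rose above 1.5 (siRNA assay) or 1.6 (miRNA assay), or dropped below 0.6; a gene counted only if two separate dsRNAs agreed on retest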

| predicted target | reagent | siRNA reporter hit score | stable siRNA reporter change | miRNA reporter change | stable assay Renilla, run 1 (luminescence) | stable assay firefly, run 1 (luminescence) |
| --- | --- | --- | --- | --- | --- | --- |
| CG14655 | 1 | – | – | – | 5404 | 4.10e5 |
| CG9344 | 1 | – | – | – | 7038 | 3.57e5 |
| I-2 (Inhibitor-2) | 1 | – | – | – | 6435 | 4.11e5 |
| I-2 (Inhibitor-2) | 2 | – | – | – | 5515 | 4.02e5 |
| Kah (Kahuli) | 1 | – | – | – | 5332 | 5.21e5 |
| Kah (Kahuli) | 2 | – | – | – | 6162 | 4.65e5 |
| CG1074 | 1 | – | reporter ratio raised past the hit cutoff | – | 6051 | 2.01e5 |
| kmg (kumgang) | 1 | – | – | – | 7042 | 3.45e5 |
| Prosalpha6T (Proteasome alpha6 subunit, Testis-specific) | 1 | – | – | – | 7488 | 4.25e5 |
| CG44251 | 1 | – | – | – | 6534 | 4.25e5 |
| mge (maggie) | 1 | – | – | – | 6558 | 5.01e5 |
| MED16 (Mediator complex subunit 16) | 1 | – | – | – | 4515 | 2.29e5 |
| CG7044 | 1 | – | – | – | 9106 | 4.47e5 |
| SmF (Small ribonucleoprotein particle protein SmF) | 1 | – | – | – | 8570 | 4.51e5 |
| CG31327 | 1 | – | – | – | 3356 | 3.54e5 |
| CG3071 | 1 | – | – | – | 7102 | 3.21e5 |
| CG42372 + CG30100 | 1 | – | – | – | 6176 | 5.00e5 |
| bif (bifocal) | 1 | – | – | – | 4959 | 3.75e5 |
| bif (bifocal) | 2 | – | – | – | 8561 | 4.73e5 |
| Fntb (Farnesyl transferase beta subunit) | 1 | – | – | – | 7290 | 2.85e5 |
| CG16799 | 1 | – | – | – | 5551 | 3.96e5 |
| CG16799 | 2 | – | – | – | 9248 | 4.29e5 |
| CtsK1 (Cathepsin K1) | 1 | – | – | – | 7446 | 4.92e5 |
| CG11409 | 1 | – | – | – | 8298 | 4.46e5 |
| CG5050 | 1 | – | – | – | 7516 | 4.50e5 |
| CG15611 | 1 | – | – | – | 11026 | 3.88e5 |
| CG15611 | 2 | – | – | – | 6342 | 3.65e5 |
| Ir75c (Ionotropic receptor 75c) | 1 | – | – | – | 7883 | 3.95e5 |
| pds5 | 1 | – | – | – | 8179 | 5.07e5 |
| CG32228 | 1 | – | – | – | 8831 | 4.65e5 |
| CG14757 | 1 | – | – | – | 6936 | 4.05e5 |
| CG34197 (retired record) | 1 | – | – | – | 7019 | 5.27e5 |
| CG5217 | 1 | – | – | – | 9567 | 4.47e5 |
| amos (absent MD neurons and olfactory sensilla) | 1 | – | – | – | 7693 | 5.74e5 |
| CG11714 | 1 | – | – | – | 8103 | 3.10e5 |
| Rpn5 (Regulatory particle non-ATPase 5) | 1 | – | – | – | 5634 | 3.22e5 |
| CG6138 | 1 | – | – | – | 8242 | 4.16e5 |
| Rpt6R (Regulatory particle triple-A ATPase 6-related) | 1 | – | – | – | 6056 | 4.19e5 |
| CG30060 | 1 | – | – | – | 6155 | 3.81e5 |
| CG6830 | 1 | – | – | – | 6467 | 3.79e5 |
| CG7695 | 1 | – | – | – | 7587 | 5.52e5 |
| Mcm6 (Minichromosome maintenance 6) | 1 | – | – | – | 8118 | 5.50e5 |
| Mgat3 | 1 | – | – | – | 5895 | 5.47e5 |
| Ir94a (Ionotropic receptor 94a) | 1 | – | – | – | 3399 | 3.46e5 |
| Fibp | 1 | – | – | – | 9336 | 3.83e5 |
| Naa15-16 (N(alpha)-acetyltransferase 15/16) | 1 | – | – | – | 5144 | 4.65e5 |
| Naa15-16 (N(alpha)-acetyltransferase 15/16) | 2 | – | – | – | 4039 | 3.82e5 |
| CG31253 + CG31131 | 1 | – | – | – | 6534 | 4.73e5 |
| CG34342 | 1 | – | – | – | 6610 | 4.24e5 |
| CG34342 | 2 | – | – | – | 4743 | 4.62e5 |
| ldd (lipid droplet defective) | 1 | – | – | – | 5468 | 4.22e5 |
| ldd (lipid droplet defective) | 2 | – | – | – | 4687 | 4.13e5 |
| CG13744 | 1 | – | – | – | 5692 | 3.88e5 |
| nec (necrotic) | 1 | – | – | – | 6810 | 3.50e5 |
| Dred (Dctn1-related) | 1 | – | – | – | 6927 | 3.42e5 |
| Dred (Dctn1-related) | 2 | – | – | – | 4767 | 4.87e5 |
| Atg10 + CG18853 + CG12822 | 1 | – | – | – | 4519 | 3.28e5 |
| Tcs6 + PIG-P | 1 | – | – | – | 4647 | 3.52e5 |
| Tcs6 + PIG-P | 2 | – | – | – | 6935 | 3.66e5 |
| CG15536 | 1 | – | – | – | 5118 | 3.58e5 |
| CG15536 | 2 | – | – | – | 5242 | 5.89e5 |
| CG15728 | 1 | – | – | – | 5199 | 4.56e5 |
| CG15728 | 2 | – | – | – | 5602 | 5.06e5 |
| Remo (Remoulade) | 1 | – | – | – | 7238 | 6.92e5 |
| Fatp (retired record) | 1 | – | – | – | 7496 | 6.59e5 |
| CG14439 | 1 | – | – | – | 5232 | 2.87e5 |
| Tango8 (Transport and Golgi organization 8) | 1 | – | – | reporter ratio lowered past the hit cutoff | 5183 | 4.77e5 |
| CG31810 | 1 | – | – | – | 5059 | 2.65e5 |

Only “stable assay Renilla, run 1 (luminescence)” (13 entries from above):
CG6138: 8242
Rpt6R (Regulatory particle triple-A ATPase 6-related): 6056
CG30060: 6155
CG6830: 6467
CG7695: 7587
Mcm6 (Minichromosome maintenance 6): 8118
Mgat3: 5895
Ir94a (Ionotropic receptor 94a): 3399
Fibp: 9336
Naa15-16 (N(alpha)-acetyltransferase 15/16) #1: 5144
Naa15-16 (N(alpha)-acetyltransferase 15/16) #2: 4039
CG31253 + CG31131: 6534
CG34342 #1: 6610

More records follow.
| predicted target | reagent | siRNA reporter hit score | stable siRNA reporter change | miRNA reporter change | stable assay Renilla, run 1 (luminescence) | stable assay firefly, run 1 (luminescence) |
| --- | --- | --- | --- | --- | --- | --- |
| CG3483 | 1 | – | – | – | 24011 | 1.46e6 |
| EMRE (Essential MCU regulator) | 1 | – | – | – | 5783 | 3.47e5 |
| gig (gigas) | 1 | – | reporter ratio raised past the hit cutoff | – | 19640 | 4.28e5 |
| Xe7 | 1 | – | – | – | 5535 | 3.62e5 |
| CG5196 | 1 | – | – | – | 6779 | 3.60e5 |
| Rrp40 (Ribosomal RNA processing 40) | 1 | – | – | – | 5936 | 4.32e5 |
| Obp58d (Odorant-binding protein 58d) | 1 | – | – | reporter ratio lowered past the hit cutoff | 7231 | 4.80e5 |
| Liprin-alpha | 1 | – | – | – | 9657 | 6.42e5 |
| CG30457 | 1 | – | – | – | 5295 | 4.45e5 |
| Shawl (Shaw-like) | 1 | – | – | – | 6419 | 3.70e5 |
| Shawl (Shaw-like) | 2 | – | – | – | 6542 | 3.04e5 |
| scat (scattered) | 1 | – | – | – | 7370 | 7.75e5 |
| Prp6 (pre-mRNA processing factor 6) | 1 | – | – | – | 5199 | 4.97e5 |
| Prp6 (pre-mRNA processing factor 6) | 2 | – | – | – | 10612 | 4.17e5 |
| LSm3 (Like Sm 3) | 1 | – | – | – | 6978 | 3.32e5 |
| Trissin | 1 | – | – | – | 7765 | 5.45e5 |
| CG13306 | 1 | – | – | – | 5978 | 3.81e5 |
| CG31391 | 1 | – | – | – | 6134 | 4.61e5 |
| Cep97 (Centrosomal protein 97kDa) | 1 | – | – | – | 15562 | 2.87e5 |
| dpr15 (defective proboscis extension response 15) | 1 | – | – | – | 4955 | 5.23e5 |
| dpr15 (defective proboscis extension response 15) | 2 | – | – | – | 5480 | 3.37e5 |
| dpr15 (defective proboscis extension response 15) | 3 | – | – | – | 5960 | 3.49e5 |
| z (zeste) | 1 | 3 | – | – | 7526 | 2.78e5 |
| z (zeste) | 2 | – | – | – | 5407 | 3.72e5 |
| Fkbp14 (FK506-binding protein 14) | 1 | – | – | – | 20006 | 7.85e5 |
| Fip1 (Factor interacting with poly(A) polymerase 1) | 1 | – | reporter ratio raised past the hit cutoff | – | 21050 | 4.31e5 |
| CG7786 | 1 | – | – | – | 5991 | 3.35e5 |
| CG34434 | 1 | – | – | – | 6894 | 3.86e5 |
| CG34434 | 2 | – | – | reporter ratio lowered past the hit cutoff | – | – |
| CG13299 | 1 | – | – | – | 6808 | 4.01e5 |
| CG8006 | 1 | – | – | – | 7802 | 5.17e5 |
| Alg11 (ALG11, alpha-1,2-mannosyltransferase) | 1 | – | – | – | 10430 | 5.71e5 |
| CG4942 | 1 | – | – | – | 8744 | 5.47e5 |
| CG42749 | 1 | – | – | – | 6143 | 3.23e5 |
| CG42749 | 2 | – | – | – | 5839 | 2.61e5 |
| CG33111 | 1 | – | – | – | 6602 | 2.66e5 |
| CG33111 | 2 | – | – | – | 6024 | 2.96e5 |
| rumpel | 1 | – | – | – | 5766 | 2.79e5 |
